In publication PMC7819943, “Rice protein-binding microarrays: a tool to detect cis-acting elements near promoter regions in rice”:
Some of the results follow.

target: T1, OsSMF1 (Oryza sativa, UniProt Q6ZLB0 1-436); experiment: protein-binding microarray (RPBM); PBS, 2% BSA, 51.3 ng/ul salmon testes DNA, 50 uM zinc acetate, 200 nM TF, 25 C, 1 h; high values mean tight binding; settings: protein: recombinant; tags: N-terminal polyhistidine and DsRed monomer fusion (pET32a); chain copies: 2; label: CyDye5-dUTP incorporated in the synthesized complementary strand; 3' TTTTT single-stranded linker to array surface; dsDNA, one strand shown
T1 sequence: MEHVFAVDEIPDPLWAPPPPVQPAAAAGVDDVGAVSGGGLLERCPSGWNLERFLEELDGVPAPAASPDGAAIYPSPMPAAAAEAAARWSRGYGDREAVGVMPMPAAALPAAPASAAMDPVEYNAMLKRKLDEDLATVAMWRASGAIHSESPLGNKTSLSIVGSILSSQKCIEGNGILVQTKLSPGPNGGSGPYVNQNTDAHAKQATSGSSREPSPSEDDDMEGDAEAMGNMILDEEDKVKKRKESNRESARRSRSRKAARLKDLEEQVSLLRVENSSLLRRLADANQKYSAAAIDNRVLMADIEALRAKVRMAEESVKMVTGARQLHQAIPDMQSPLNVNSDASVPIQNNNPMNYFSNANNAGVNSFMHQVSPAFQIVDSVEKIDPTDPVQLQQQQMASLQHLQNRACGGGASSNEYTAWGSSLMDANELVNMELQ
Method in brief: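 Transcription factors, each fused N-terminally to a polyhistidine tag and DsRed, were expressed in E. coli BL21-CodonPlus and purified on Ni–NTA. A custom Agilent array was made double-stranded by primer extension with Cy5-dUTP and blocked with 2% BSA. It was incubated with 200 nM protein in PBS, 2% BSA, salmon testes DNA and 50 µM zinc acetate at 25 °C for 1 h, then washed. The binding signal is per-feature fluorescence intensity (arbitrary units) read on an Axon 4000B scanner.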

Sequence	binding signal
GTGCAACCCAGGCCATCCCACGCAATCGGACACAGCACCGCGGAGTCACCTAGTGCAG	5780 fluorescence intensity (a.u.)
CTCAACGTCCACGATGACACGCCATGGTTCATCGTCGGCACGGAGTCACCTAGTGCAG	5550 fluorescence intensity (a.u.)
GCATGGCGCCGCCATCTCGGATTCGCCGTAGTGTCTCCGCCGGAGTCACCTAGTGCAG	35300 fluorescence intensity (a.u.)
GCAATTACATTCATGACATGGATCTGGCCTAGTTTTGCTGCGGAGTCACCTAGTGCAG	5040 fluorescence intensity (a.u.)
CCACGCCCGACGCTGTAGCTGACAGGTGGGTCCACACCATCGGAGTCACCTAGTGCAG	3780 fluorescence intensity (a.u.)
GGCCTTACAATATAAGAATATTCTTGTAGCATTAGGGTAGCGGAGTCACCTAGTGCAG	3740 fluorescence intensity (a.u.)
TTCAAATGGAGAACTGACGAACTTGTAATATGACGTCAGTCGGAGTCACCTAGTGCAG	6230 fluorescence intensity (a.u.)
CAATGCTTTTCACAATAACTTGTGTCATTTTCTGAAGTTTCGGAGTCACCTAGTGCAG	3500 fluorescence intensity (a.u.)
CAGACCACAGCCATCAACCGCGTCGAACGGATGGATGGTCCGGAGTCACCTAGTGCAG	3220 fluorescence intensity (a.u.)
GGAAACCCACCTCCGTCGACTTCTTCTTCAACTCCGGTTGCGGAGTCACCTAGTGCAG	3370 fluorescence intensity (a.u.)
CCCAGTAGTGTTCCGGTTAGCTCTATATGATGGTGGGCTACGGAGTCACCTAGTGCAG	3980 fluorescence intensity (a.u.)
CGGAATCGGCGTCCGAAATTGGACGTGGCCTGCCTGCAGTCGGAGTCACCTAGTGCAG	4200 fluorescence intensity (a.u.)
CACGCTGCAGCAGCGTGGCCCACACGCCATGCTGGCACGCCGGAGTCACCTAGTGCAG	4360 fluorescence intensity (a.u.)
ACTACAACAGTTTAATTAATATCCTGGTCATCCAAAAGCCCGGAGTCACCTAGTGCAG	3290 fluorescence intensity (a.u.)
GCAAGATTGGACGGTCCAGATCTCTAAAGTACGTCAGCACCGGAGTCACCTAGTGCAG	6320 fluorescence intensity (a.u.)
ATACTGACGTTGCGTCACTTCCTTAACTCGGGGTAGTACTCGGAGTCACCTAGTGCAG	6460 fluorescence intensity (a.u.)
ATGTGAACGCCATGTAAGCAGGTCACGCGTGACAGCACGACGGAGTCACCTAGTGCAG	4580 fluorescence intensity (a.u.)
GCGCGTGGCGTGACAGAGTTATTTGGCCAGGTTTACATCTCGGAGTCACCTAGTGCAG	3210 fluorescence intensity (a.u.)
TTTGTTCTGGACGATTCGGGTCGTGCTGGTAACCTGAACTCGGAGTCACCTAGTGCAG	3220 fluorescence intensity (a.u.)
CGGCACATACATGCACCGGCGCGCGCACGTCACGACAACGCGGAGTCACCTAGTGCAG	7470 fluorescence intensity (a.u.)
GGCCCATACGTCAGTGGCTGTATGACGCCACGTCAGCTGGCGGAGTCACCTAGTGCAG	36400 fluorescence intensity (a.u.)

Individual results from the results shown:
binding signal with GGAAACCCACCTCCGTCGACTTCTTCTTCAACTCCGGTTGCGGAGTCACCTAGTGCAG is entered as 3370 fluorescence intensity (a.u.)
binding signal with CCCAGTAGTGTTCCGGTTAGCTCTATATGATGGTGGGCTACGGAGTCACCTAGTGCAG is entered as 3980 fluorescence intensity (a.u.)

More results

Sequence	binding signal
AGGAATAAGCTCATTTGAAGTACCTGGATGTGGATTTTCTCGGAGTCACCTAGTGCAG	20000 fluorescence intensity (a.u.)
CCTCGATCCGCCAGCTCGATCCACATGCATTGCCTCCCCTCGGAGTCACCTAGTGCAG	3400 fluorescence intensity (a.u.)
GTCCCACCCAACTAACGAGCGATGAATCAGCGAGCGACGACGGAGTCACCTAGTGCAG	4530 fluorescence intensity (a.u.)
ATTAAAATTTTGGTAGATAAACATAAGAATAAGCGAAAAGCGGAGTCACCTAGTGCAG	38800 fluorescence intensity (a.u.)
GACGAGGTTGGGCTGCGCATTGAGCAGCCCATGGGCCCCGCGGAGTCACCTAGTGCAG	27100 fluorescence intensity (a.u.)
CATATTTTGATGCTGAAGTCATCATAATTAGCTCGTTCGTCGGAGTCACCTAGTGCAG	4410 fluorescence intensity (a.u.)
GGCCCGGTCGCCGGCAGATCGCACGTCACGACGAGGATCACGGAGTCACCTAGTGCAG	4020 fluorescence intensity (a.u.)
ACAGAAGTGGGCGGCCCACCGCCCAATCAGGGAGTCCTTGCGGAGTCACCTAGTGCAG	3510 fluorescence intensity (a.u.)
TGATCAAGGTACCATTCGTCTCTGACAACTCCACCGTGTGCGGAGTCACCTAGTGCAG	3420 fluorescence intensity (a.u.)
GAGAGGAGGCTGACGTGGATATACTGACATGTGGGGTTCGCGGAGTCACCTAGTGCAG	14300 fluorescence intensity (a.u.)
ACTACCACTGCATAGTGTCATGCATCATTGACTCATCATCCGGAGTCACCTAGTGCAG	4750 fluorescence intensity (a.u.)
GGCTCAAAAGATTCATCTCGCGATTTCCATACAAACTGTACGGAGTCACCTAGTGCAG	46300 fluorescence intensity (a.u.)
TTGCATTGAACTCATCATCATCCTTCAAATAATTCATCCACGGAGTCACCTAGTGCAG	3340 fluorescence intensity (a.u.)
CGGAGGTCGCCGCGCCCGTGCCCACGCCAGAGCCATCACACGGAGTCACCTAGTGCAG	38900 fluorescence intensity (a.u.)
CTTCCCTCGCCCCGGTCGATCGATCGAAGCCGACGAAGCACGGAGTCACCTAGTGCAG	3260 fluorescence intensity (a.u.)
ACATGCGTACACGCGCCACATACGTTACGTACGACGCCTACGGAGTCACCTAGTGCAG	4930 fluorescence intensity (a.u.)
GCAGCAGTGATGCACGCCCGCAAGAGACGAATCGTTTGCACGGAGTCACCTAGTGCAG	3770 fluorescence intensity (a.u.)
CTAAACAAAGGATGAGGCTATGAGCACCCACCAACCATACCGGAGTCACCTAGTGCAG	34200 fluorescence intensity (a.u.)
TGCCCACCCCTGCACCTGTCAGCGGCTCTACTTTTCGCCTCGGAGTCACCTAGTGCAG	3540 fluorescence intensity (a.u.)
GGCATAATAGGCCAGCCGTGTAGGCAGAGACACCAGTCGGCGGAGTCACCTAGTGCAG	4530 fluorescence intensity (a.u.)
TGTATGGTGTAGAAAAGTGCTGGTGTTGTTTACTTCATTGCGGAGTCACCTAGTGCAG	31300 fluorescence intensity (a.u.)
